The record followed here is publication PMC5302884.

No constants are given. Whether binding was seen depends on the method and setting. Binding seen in cells or lysates may run through a third protein. Some entries that bind do so weakly or less than the wild type.

The target of test [1] is Bak G4C (human) (UniProt Q16611). As to the kind of experiment: cross-linking; membrane fractions incubated with tBid (100 nM, 30 min, 30°C), pre-chilled, CuPhe on ice 15 min; non-reducing SDS-PAGE, immunoblot for Bak; 2x complexes. On the technique in general: In western blotting, separated proteins are transferred to a membrane and probed.
For test [2] the target is unchanged. The test is described as follows: cross-linking + native gel or EMSA; membrane fractions incubated with tBid, CuPhe on ice, then solubilised in 1% digitonin and run on blue native PAGE; 4x and greater complexes mean linkage between dimers (dimers to higher order complexes). A general note: In EMSA bound probe runs differently from free probe, usually more slowly.

In test [3] the target is Bak S23C (human) (UniProt Q16611). The test is described as follows: cross-linking; membrane fractions incubated with tBid (100 nM, 30 min, 30°C), pre-chilled, CuPhe on ice 15 min; non-reducing SDS-PAGE, immunoblot for Bak; 2x complexes.
For test [4] the target is unchanged. As to the kind of experiment: cross-linking + native gel or EMSA; membrane fractions incubated with tBid, CuPhe on ice, then solubilised in 1% digitonin and run on blue native PAGE; 4x and greater complexes mean linkage between dimers (dimers to higher order complexes).
Test [5] has as its target Bak Q66C (human) (UniProt Q16611). The test is described as follows: cross-linking; membrane fractions incubated with tBid (100 nM, 30 min, 30°C), pre-chilled, CuPhe on ice 15 min; non-reducing SDS-PAGE, immunoblot for Bak; 2x complexes.
Test [6] shares this target. The test is described as follows: cross-linking + native gel or EMSA; membrane fractions incubated with tBid, CuPhe on ice, then solubilised in 1% digitonin and run on blue native PAGE; 4x and greater complexes mean linkage between dimers (dimers to higher order complexes).
Test [7] addresses Bak S69C (human) (UniProt Q16611). As to the kind of experiment: cross-linking; membrane fractions incubated with tBid (100 nM, 30 min, 30°C), pre-chilled, CuPhe on ice 15 min; non-reducing SDS-PAGE, immunoblot for Bak; 2x complexes.
The target is the same in test [8]. As to the kind of experiment: cross-linking + native gel or EMSA; membrane fractions incubated with tBid, CuPhe on ice, then solubilised in 1% digitonin and run on blue native PAGE; 4x and greater complexes mean linkage between dimers (dimers to higher order complexes).
Test [9] deals with Bak D57C (human) (UniProt Q16611). As to the kind of experiment: cross-linking; membrane fractions incubated with tBid (100 nM, 30 min, 30°C), pre-chilled, CuPhe on ice 15 min; non-reducing SDS-PAGE, immunoblot for Bak; 2x complexes.
Test [10] shares this target. As to the kind of experiment: cross-linking + native gel or EMSA; membrane fractions incubated with tBid, CuPhe on ice, then solubilised in 1% digitonin and run on blue native PAGE; 4x and greater complexes mean linkage between dimers (dimers to higher order complexes).
Test [11] has as its target Bak P58C (human) (UniProt Q16611). The test is described as follows: cross-linking; membrane fractions incubated with tBid (100 nM, 30 min, 30°C), pre-chilled, CuPhe on ice 15 min; non-reducing SDS-PAGE, immunoblot for Bak; 2x complexes.
For test [12] the target is unchanged. As to the kind of experiment: cross-linking + native gel or EMSA; membrane fractions incubated with tBid, CuPhe on ice, then solubilised in 1% digitonin and run on blue native PAGE; 4x and greater complexes mean linkage between dimers (dimers to higher order complexes).
The target of test [13] is Bak T62C (human) (UniProt Q16611). The test is described as follows: cross-linking; membrane fractions incubated with tBid (100 nM, 30 min, 30°C), pre-chilled, CuPhe on ice 15 min; non-reducing SDS-PAGE, immunoblot for Bak; 2x complexes.
For test [14] the target is unchanged. The test is described as follows: cross-linking + native gel or EMSA; membrane fractions incubated with tBid, CuPhe on ice, then solubilised in 1% digitonin and run on blue native PAGE; 4x and greater complexes mean linkage between dimers (dimers to higher order complexes).
Test [15] concerns the target Bak G186C (human) (UniProt Q16611). The test is described as follows: cross-linking; membrane fractions incubated with tBid (100 nM, 30 min, 30°C), pre-chilled, CuPhe on ice 15 min; non-reducing SDS-PAGE, immunoblot for Bak; 2x complexes.
The target of test [16] is Bak G51C (human) (UniProt Q16611). The description is as above.
For test [17] the target is unchanged. As to the kind of experiment: cross-linking + native gel or EMSA; membrane fractions incubated with tBid, CuPhe on ice, then solubilised in 1% digitonin and run on blue native PAGE; 4x and greater complexes mean linkage between dimers (dimers to higher order complexes).
For test [18], the target named is Bak S68C (human) (UniProt Q16611). As to the kind of experiment: cross-linking; membrane fractions incubated with tBid (100 nM, 30 min, 30°C), pre-chilled, CuPhe on ice 15 min; non-reducing SDS-PAGE, immunoblot for Bak; 2x complexes.
Test [19] shares this target. The test is described as follows: cross-linking + native gel or EMSA; membrane fractions incubated with tBid, CuPhe on ice, then solubilised in 1% digitonin and run on blue native PAGE; 4x and greater complexes mean linkage between dimers (dimers to higher order complexes).
In test [20] the target is Bak I188C (human) (UniProt Q16611). As to the kind of experiment: cross-linking; membrane fractions incubated with tBid (100 nM, 30 min, 30°C), pre-chilled, CuPhe on ice 15 min; non-reducing SDS-PAGE, immunoblot for Bak; 2x complexes.
The target in test [21] is Bak N190C (human) (UniProt Q16611). Described as above.

B1: Bak G4C (protein, UniProt Q16611 1-211)
chain: MASCQGPGPPRQESGEPALPSASEEQVAQDTEEVFRSYVFYRHQQEQEAEGVAAPADPEMVTLPLQPSSTMGQVGRQLAIIGDDINRRYDSEFQTMLQHLQPTAENAYEYFTKIATSLFESGINWGRVVALLGFGYRLALHVYQHGLTGFLGQVTRFVVDFMLHHSIARWIAQRGGWVAALNLGNGPILNVLVVLGVVLLGQFVVRRFFKS
As to B1, the binding entry in test [1] and in test [2] was “binds” throughout.

B2: Bak S23C (protein, UniProt Q16611 1-211)
chain: MASGQGPGPPRQESGEPALPSACEEQVAQDTEEVFRSYVFYRHQQEQEAEGVAAPADPEMVTLPLQPSSTMGQVGRQLAIIGDDINRRYDSEFQTMLQHLQPTAENAYEYFTKIATSLFESGINWGRVVALLGFGYRLALHVYQHGLTGFLGQVTRFVVDFMLHHSIARWIAQRGGWVAALNLGNGPILNVLVVLGVVLLGQFVVRRFFKS
For B2, the binding entry in [3] and in test [4] was “binds” in each case.

B3: Bak Q66C (protein, UniProt Q16611 1-211)
chain: MASGQGPGPPRQESGEPALPSASEEQVAQDTEEVFRSYVFYRHQQEQEAEGVAAPADPEMVTLPLCPSSTMGQVGRQLAIIGDDINRRYDSEFQTMLQHLQPTAENAYEYFTKIATSLFESGINWGRVVALLGFGYRLALHVYQHGLTGFLGQVTRFVVDFMLHHSIARWIAQRGGWVAALNLGNGPILNVLVVLGVVLLGQFVVRRFFKS
Regarding B3, the binding result in [5] and in test [6] was “binds” each time.

B4: Bak S69C (protein, UniProt Q16611 1-211)
chain: MASGQGPGPPRQESGEPALPSASEEQVAQDTEEVFRSYVFYRHQQEQEAEGVAAPADPEMVTLPLQPSCTMGQVGRQLAIIGDDINRRYDSEFQTMLQHLQPTAENAYEYFTKIATSLFESGINWGRVVALLGFGYRLALHVYQHGLTGFLGQVTRFVVDFMLHHSIARWIAQRGGWVAALNLGNGPILNVLVVLGVVLLGQFVVRRFFKS
Regarding B4, the binding result in [7] and in test [8] was “binds” throughout.

B5: Bak D57C (protein, UniProt Q16611 1-211)
chain: MASGQGPGPPRQESGEPALPSASEEQVAQDTEEVFRSYVFYRHQQEQEAEGVAAPACPEMVTLPLQPSSTMGQVGRQLAIIGDDINRRYDSEFQTMLQHLQPTAENAYEYFTKIATSLFESGINWGRVVALLGFGYRLALHVYQHGLTGFLGQVTRFVVDFMLHHSIARWIAQRGGWVAALNLGNGPILNVLVVLGVVLLGQFVVRRFFKS
For B5, the binding result in [9] and in test [10] was “binds” each time.

B6: Bak P58C (protein, UniProt Q16611 1-211)
chain: MASGQGPGPPRQESGEPALPSASEEQVAQDTEEVFRSYVFYRHQQEQEAEGVAAPADCEMVTLPLQPSSTMGQVGRQLAIIGDDINRRYDSEFQTMLQHLQPTAENAYEYFTKIATSLFESGINWGRVVALLGFGYRLALHVYQHGLTGFLGQVTRFVVDFMLHHSIARWIAQRGGWVAALNLGNGPILNVLVVLGVVLLGQFVVRRFFKS
As for B6, the binding result in [11] and in test [12] was “binds” in each case.

B7: Bak T62C (protein, UniProt Q16611 1-211)
chain: MASGQGPGPPRQESGEPALPSASEEQVAQDTEEVFRSYVFYRHQQEQEAEGVAAPADPEMVCLPLQPSSTMGQVGRQLAIIGDDINRRYDSEFQTMLQHLQPTAENAYEYFTKIATSLFESGINWGRVVALLGFGYRLALHVYQHGLTGFLGQVTRFVVDFMLHHSIARWIAQRGGWVAALNLGNGPILNVLVVLGVVLLGQFVVRRFFKS
In the case of B7, the binding entry in [13] and in test [14] was “binds” throughout.

B8: Bak G186C (protein, UniProt Q16611 1-211)
chain: MASGQGPGPPRQESGEPALPSASEEQVAQDTEEVFRSYVFYRHQQEQEAEGVAAPADPEMVTLPLQPSSTMGQVGRQLAIIGDDINRRYDSEFQTMLQHLQPTAENAYEYFTKIATSLFESGINWGRVVALLGFGYRLALHVYQHGLTGFLGQVTRFVVDFMLHHSIARWIAQRGGWVAALNLGNCPILNVLVVLGVVLLGQFVVRRFFKS
Regarding B8, in [15], the binding entry is given as “binds”.

B9: Bak G51C (protein, UniProt Q16611 1-211)
chain: MASGQGPGPPRQESGEPALPSASEEQVAQDTEEVFRSYVFYRHQQEQEAECVAAPADPEMVTLPLQPSSTMGQVGRQLAIIGDDINRRYDSEFQTMLQHLQPTAENAYEYFTKIATSLFESGINWGRVVALLGFGYRLALHVYQHGLTGFLGQVTRFVVDFMLHHSIARWIAQRGGWVAALNLGNGPILNVLVVLGVVLLGQFVVRRFFKS
On to B9, for which the binding entry in [16] and in test [17] was “binds” in each case.

B10: Bak S68C (protein, UniProt Q16611 1-211)
chain: MASGQGPGPPRQESGEPALPSASEEQVAQDTEEVFRSYVFYRHQQEQEAEGVAAPADPEMVTLPLQPCSTMGQVGRQLAIIGDDINRRYDSEFQTMLQHLQPTAENAYEYFTKIATSLFESGINWGRVVALLGFGYRLALHVYQHGLTGFLGQVTRFVVDFMLHHSIARWIAQRGGWVAALNLGNGPILNVLVVLGVVLLGQFVVRRFFKS
Regarding B10, the binding entry in test [18] and in test [19] was “binds” throughout.

B11: Bak I188C (protein, UniProt Q16611 1-211)
chain: MASGQGPGPPRQESGEPALPSASEEQVAQDTEEVFRSYVFYRHQQEQEAEGVAAPADPEMVTLPLQPSSTMGQVGRQLAIIGDDINRRYDSEFQTMLQHLQPTAENAYEYFTKIATSLFESGINWGRVVALLGFGYRLALHVYQHGLTGFLGQVTRFVVDFMLHHSIARWIAQRGGWVAALNLGNGPCLNVLVVLGVVLLGQFVVRRFFKS
As for B11, the binding result in [20] is “binds”.

B12: Bak N190C (protein, UniProt Q16611 1-211)
chain: MASGQGPGPPRQESGEPALPSASEEQVAQDTEEVFRSYVFYRHQQEQEAEGVAAPADPEMVTLPLQPSSTMGQVGRQLAIIGDDINRRYDSEFQTMLQHLQPTAENAYEYFTKIATSLFESGINWGRVVALLGFGYRLALHVYQHGLTGFLGQVTRFVVDFMLHHSIARWIAQRGGWVAALNLGNGPILCVLVVLGVVLLGQFVVRRFFKS
As to B12, the binding result in [21] is reported as “binds”.
